PubChem BioAssay AID1259405 – NCATS | 2018

- Aim: 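Knock-downs that lift recombinant protein yield in hamster ovary cells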 (primary screen)
- Cell system: Chinese hamster CHO-K1 ovary cells with stable secreted eGFP expression
- Reagents: single siRNA against mouse genes, 0.8 pmol siRNA per well (2 µl of 400 nM stock)
- Duration: 3 days
- Read-out: 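Percent of the per-plate non-targeting control median for intracellular GFP per well by laser scanning cytometry and for cell viability by ATP luminescence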
- Reading the numbers: GFP, % of control: higher = more GFP per well, higher productivity; viability (ATP), % of control: higher = more viable cells (more ATP)
- Hit rule: 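a knock-down is called active if GFP reaches 120% or more of non-targeting control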
Here is a random part of about 50,000 deposited reagents. Over the whole deposit, about 4,000 (8%) are marked active. 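Mouse siRNA library applied to hamster cells; one well for each siRNA.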 The numbers tell different reagents against one gene apart.

no.	gene	siRNA no.	GFP, % of control	viability (ATP), % of control	outcome
1	Akr1c18	1	129	82.3	active
2	Akr1c18	2	153	93.8	active
3	Akr1c18	3	88.7	74.2	inactive
4	Rwdd2a	1	153	71.1	active
5	Rwdd2a	2	85.1	90.5	inactive
6	Rwdd2a	3	70.8	81.4	inactive
7	Mtus2	1	29.9	24.4	inactive
8	Mtus2	2	78.6	86.7	inactive
9	Mtus2	3	81.4	92.9	inactive
10	Tspan32	1	80.5	73.4	inactive
11	Tspan32	2	85.8	77	inactive
12	Tspan32	3	80.5	86.7	inactive
13	Rit1	1	61.3	38.3	inactive
14	Rit1	2	66.7	55.9	inactive
15	Rit1	3	57.6	60.2	inactive
16	Sms	1	68.8	71.9	inactive
17	Sms	2	121	136	active
18	Sms	3	103	97.4	inactive
19	Or5w18	1	13.6	13.4	inactive
20	Or5w18	2	75.4	57.4	inactive
21	Or5w18	3	87.4	67.9	inactive
22	Oxt	1	57.5	44	inactive
23	Oxt	2	93.2	79.6	inactive
24	Oxt	3	40.9	65.6	inactive
25	Tsg101	1	56.2	56.3	inactive
26	Tsg101	2	90.2	88	inactive
27	Tsg101	3	79.9	125	inactive
28	Pi15	1	83.5	80.2	inactive
29	Pi15	2	92.3	56.4	inactive
30	Pi15	3	117	103	inactive
31	Ctnnal1	1	84	79.3	inactive
32	Ctnnal1	2	82.9	77.5	inactive
33	Ctnnal1	3	140	88.7	active

Hits, of those listed so far:
gene	siRNA no.	GFP, % of control	viability (ATP), % of control	outcome
Akr1c18	1	129	82.3	active
Akr1c18	2	153	93.8	active
Rwdd2a	1	153	71.1	active
Sms	2	121	136	active
Ctnnal1	3	140	88.7	active

Further reagents follow.
no.	gene	siRNA no.	GFP, % of control	viability (ATP), % of control	outcome
34	Rabl2	1	129	79.8	active
35	Rabl2	2	76.8	68.9	inactive
36	Rabl2	3	58.2	27.7	inactive
37	Slc29a3	1	104	91.2	inactive
38	Slc29a3	2	40.2	74.3	inactive
39	Slc29a3	3	85.4	101	inactive
40	Ccnd2	1	92.3	73	inactive
41	Ccnd2	2	89.5	97.7	inactive
42	Lat2	1	57.7	74.3	inactive
43	Lat2	2	112	61.5	inactive
44	Lat2	3	78.7	84.7	inactive
45	Ly6k	1	94.9	88.8	inactive
46	Ly6k	2	102	109	inactive
47	Ly6k	3	71.9	91.8	inactive
48	Klra17	1	58.7	81	inactive
49	Klra17	2	84.3	70.5	inactive
50	Klra17	3	127	79.7	active
51	Dyrk1a	1	142	68.1	active
52	Tprn	1	74.2	92.7	inactive
53	Tprn	2	84	95.6	inactive
54	Tprn	3	85.9	95.8	inactive
55	Hdhd2	1	64	72.5	inactive
56	Hdhd2	2	81.5	64	inactive
57	Hdhd2	3	46.3	48.9	inactive
58	Ifnar1	1	70.4	101	inactive
59	Ifnar1	2	76.9	78.4	inactive
60	Ifnar1	3	60.8	73.1	inactive
61	Gxylt2	1	109	70	inactive
62	Gxylt2	2	61.1	83.4	inactive
63	Gxylt2	3	86.1	112	inactive
64	Bpifb2	1	85.3	125	inactive
65	Bpifb2	2	70.6	80.1	inactive
66	Or8g21	1	61.1	68.3	inactive
67	Or8g21	2	88.2	73.6	inactive
68	Or8g21	3	72.7	71.8	inactive
69	Fxr1	1	87.9	107	inactive
70	Fxr1	2	66.9	59.5	inactive
71	Fxr1	3	57.5	40.6	inactive
72	Cdcp2	1	98.8	111	inactive
73	Cdcp2	2	161	87.2	active
74	Cdcp2	3	76.7	93	inactive
75	Scgb1b27	1	100	71	inactive
76	Scgb1b27	2	55.8	49	inactive
77	Scgb1b27	3	103	96.9	inactive
78	Unkl	1	105	105	inactive
79	Unkl	2	66.7	83.9	inactive
80	Unkl	3	81.2	87	inactive
81	Ptf1a	1	71.9	86.7	inactive
82	Ptf1a	2	48.8	57.6	inactive
83	Ptf1a	3	93.7	103	inactive
84	Stk36	1	55.9	52.3	inactive
85	Stk36	2	72.2	66.9	inactive
86	Stk36	3	35.4	47.4	inactive
